Some results were stated once for a whole list of compounds, not compound by compound.
How the values were obtained:
[1] = biological target: T1, purified intracellular domain of c-kit (Homo sapiens, UniProt P10721); test: in vitro TK inhibition assay (ELISA, phosphorylation of tyrosine containing target peptide); format: biochemical; conditions: purified intracellular domain of c-kit expressed in baculovirus
T1 construct: purified intracellular domain of c-kit expressed in baculovirus; made in house
Procedure: in vitro TK Inhibition Assays
Experiments were performed using purified intracellular domain of c-kit expressed in baculovirus. Estimation of the kinase activity was assessed by the phosphoiylation of tyrosine containing target peptide estimated by established ELISA assay.

By UniProt entry, the sequences of proteins in these tests, tags left out. Residues count along the entry.
UniProt P10721, 546-976 limits assumed: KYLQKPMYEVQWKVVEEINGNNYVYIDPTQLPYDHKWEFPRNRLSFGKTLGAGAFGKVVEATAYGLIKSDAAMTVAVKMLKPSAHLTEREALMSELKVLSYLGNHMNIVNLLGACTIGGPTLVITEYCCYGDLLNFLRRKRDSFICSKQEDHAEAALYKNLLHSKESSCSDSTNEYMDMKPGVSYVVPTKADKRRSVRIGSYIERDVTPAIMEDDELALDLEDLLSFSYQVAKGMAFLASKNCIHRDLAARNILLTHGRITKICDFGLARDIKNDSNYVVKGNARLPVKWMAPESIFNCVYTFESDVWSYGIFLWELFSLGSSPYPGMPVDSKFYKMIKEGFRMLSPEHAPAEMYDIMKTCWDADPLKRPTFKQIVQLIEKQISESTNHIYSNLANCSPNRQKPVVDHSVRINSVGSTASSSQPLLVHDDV

c-Kit WT = c-Kit WT (UniProt P05532); test: ex vivo TK inhibition, [3H] thymidine proliferation assay, c-Kit WT; format: cell-based; conditions: Ba/F3-derived cells, [3H] thymidine incorporation after 2 days of culture
c-Kit JM Δ27 = c-Kit JM Δ27 (Mus musculus, UniProt P05532); test: ex vivo TK inhibition, [3H] thymidine proliferation assay, mutated c-Kit (JM); format: cell-based, murine; conditions: Ba/F3 mkitΔ27 (juxtamembrane deletion), [3H] thymidine incorporation after 2 days of culture

3-Fluoro4-4-(4-methyl-piperazin-1-ylmethyl)-N-[4-methyl-3-(4-pyridin-3-yl-thiazol-2-ylamino)-phenyl]-benzamide [Compound 074]
IC50 [1]: < 10 µM
IC50 (c-Kit WT): < 10 µM
IC50 (c-Kit JM Δ27): < 1 µM

Source: patent US20070032521A1, “Use of c-kit inhibitors for treating type II diabetes” (AB Science, priority 2003, published 2007)
